Read-outs that look alike come from different tables or passages of the source. Not every detail of the peptide structures is certain; ends, links or a residue may be inferred. Some compounds share one wording; it may come from a single statement. Ends that are not written are not given here.
Key:
[1] = tested on: human bladder cancer HT1376; experiment: heterotransplanted human bladder cancer HT1376 in nude mice; assay type: in vivo; conditions: for tumor inhibition rate / tumor weight: daily, tail vein injection; for inhibition rate on tumor: tail vein daily
Source text: (§1) The total medication period was 14 days.

[2] = tested on: human liver cancer SMMC-7721; conditions: tail vein daily
[3] = tested on: human laryngeal cancer Hep-2; experiment: heterotransplanted human laryngeal cancer Hep-2 in nude mice; assay type: in vivo; conditions: for tumor inhibition rate / tumor weight: daily, tail vein injection; for inhibition rate on tumor: tail vein daily
Source text: as §1

[4] = tested on: human testicular cancer 5637; assay type: in vivo, nude mice; conditions: for tumor inhibition rate / tumor weight: daily, tail vein injection; for inhibition rate on tumor: tail vein daily
Source text: as §1

sarcoma HT-1080 = assay type: in vivo, nude mice; conditions: for tumor inhibition rate / tumor weight: daily, tail vein injection; for inhibition rate on tumor: tail vein daily
Source text: as §1

[5] = tested on: human esophageal cancer Ec109; assay type: in vivo, nude mice; conditions: for tumor inhibition rate / tumor weight: daily, tail vein injection; for inhibition rate on tumor: tail vein daily
Source text: as §1

[6] = tested on: human gallbladder cancer GBC-SD; experiment: heterotransplanted human gallbladder cancer GBC-SD in nude mice; conditions: for tumor inhibition rate / tumor weight: daily, tail vein injection; for inhibition rate on tumor: tail vein daily
melanoma B16F10 = experiment: transplanted melanoma B16F10 in C57BL/6 black mice; conditions: hypodermic, 14 days
Experimental: Hypodermically injecting polypeptides and other drugs into the left axillary region of mice from the experimental groups respectively while administering only equal quantity of physiological saline to the mice from the negative control group. The total medication period was 14 days, during which cyclophosphamide was administered once every other day, taxol once every three days, low-dose polypeptide twice a day and all other drugs once a day.

[7] = tested on: human gastric cancer MGC-803; experiment: heterotransplanted human gastric cancer MGC-803 in nude mice; conditions: tail vein daily
[8] = tested on: human cervical cancer HeLa; assay type: in vivo, nude mice; conditions: tail vein daily
[9] = tested on: human rectal cancer Colo 320; conditions: for tumor inhibition rate / tumor weight: daily, tail vein injection; for inhibition rate on tumor: tail vein daily
adjuvant arthritis = experiment: adjuvant-induced arthritis (AIA) rat models; assay type: in vivo, SD rats; conditions: for in vivo immunoprotective / therapeutic effect on AIA rat models: all doses, hypodermic twice a day, 10 days; for swelling of left paws / swelling of right paws / clinical scoring: AIA rats; for clinical scoring: joint score, 16 as the highest point
[10] = tested on: human pancreatic cancer SW-1990; experiment: heterotransplanted human pancreatic cancer SW-1990 in nude mice; assay type: in vivo; conditions: for tumor inhibition rate / tumor weight: daily, tail vein injection; for inhibition rate on tumor: tail vein daily
Source text: as §1

human brain tumor SF763 = conditions: for tumor inhibition rate / tumor weight: daily, tail vein injection; for inhibition rate on tumor: tail vein daily
[11] = tested on: human prostate cancer DU-145; assay type: in vivo, nude mice; conditions: tail vein daily

FQPVLHLVALNSPLSGGMRGIRGADFQCFQQARAVGLAGTFRA [polypeptide I]
tumor inhibition rate ([1]; 0.75 mg/kg/time): 53.17%
tumor weight ([1]; 0.75 mg/kg/time): 0.59 ± 0.16 g
tumor inhibition rate ([1]; 1.5 mg/kg/time): 56.34%
tumor weight ([1]; 1.5 mg/kg/time): 0.55 ± 0.09 g
tumor inhibition rate ([1]; 3 mg/kg/time): 49.20%
tumor weight ([1]; 3 mg/kg/time): 0.64 ± 0.13 g
inhibition rate on tumor ([1]; high dose): 49.20%
inhibition rate on tumor ([1]; low dose): 53.17%
inhibition rate on tumor ([1]; medium dose): 56.34%
tumor inhibition rate ([2]; 0.75 mg/kg/time): 58.26%
tumor weight ([2]; 0.75 mg/kg/time): 0.53 ± 0.04 g
tumor inhibition rate ([2]; 1.5 mg/kg/time): 63.00%
tumor weight ([2]; 1.5 mg/kg/time): 0.47 ± 0.14 g
tumor inhibition rate ([2]; 3 mg/kg/time): 56.70%
tumor weight ([2]; 3 mg/kg/time): 0.55 ± 0.12 g
tumor inhibition rate ([3]; 0.75 mg/kg/time): 60.90%
tumor weight ([3]; 0.75 mg/kg/time): 0.43 ± 0.07 g
tumor inhibition rate ([3]; 1.5 mg/kg/time): 63.39%
tumor weight ([3]; 1.5 mg/kg/time): 0.41 ± 0.16 g
tumor inhibition rate ([3]; 3 mg/kg/time): 55.35%
tumor weight ([3]; 3 mg/kg/time): 0.50 ± 0.10 g
inhibition rate on tumor ([3]; high dose): 55.35%
inhibition rate on tumor ([3]; low dose): 60.90%
inhibition rate on tumor ([3]; medium dose): 63.39%
tumor inhibition rate ([4]; 0.75 mg/kg/time): 56.34%
tumor weight ([4]; 0.75 mg/kg/time): 0.55 ± 0.11 g
tumor inhibition rate ([4]; 1.5 mg/kg/time): 63.49%
tumor weight ([4]; 1.5 mg/kg/time): 0.46 ± 0.10 g
tumor inhibition rate ([4]; 3 mg/kg/time): 54.76%
tumor weight ([4]; 3 mg/kg/time): 0.57 ± 0.11 g
inhibition rate on tumor ([4]; high dose): 54.76%
inhibition rate on tumor ([4]; low dose): 56.34%
inhibition rate on tumor ([4]; medium dose): 63.49%
tumor inhibition rate (sarcoma HT-1080; 0.75 mg/kg/time): 69.34%
tumor weight (sarcoma HT-1080; 0.75 mg/kg/time): 0.42 ± 0.10 g
tumor inhibition rate (sarcoma HT-1080; 1.5 mg/kg/time): 73.72%
tumor weight (sarcoma HT-1080; 1.5 mg/kg/time): 0.36 ± 0.08 g
tumor inhibition rate (sarcoma HT-1080; 3 mg/kg/time): 64.23%
tumor weight (sarcoma HT-1080; 3 mg/kg/time): 0.49 ± 0.14 g
inhibition rate on tumor (sarcoma HT-1080; high dose): 64.23%
inhibition rate on tumor (sarcoma HT-1080; low dose): 69.34%
inhibition rate on tumor (sarcoma HT-1080; medium dose): 73.72%
tumor inhibition rate ([5]; 0.75 mg/kg/time): 65.36%
tumor weight ([5]; 0.75 mg/kg/time): 0.53 ± 0.08 g
tumor inhibition rate ([5]; 1.5 mg/kg/time): 69.00%
tumor weight ([5]; 1.5 mg/kg/time): 0.47 ± 0.06 g
tumor inhibition rate ([5]; 3 mg/kg/time): 64.71%
tumor weight ([5]; 3 mg/kg/time): 0.54 ± 0.08 g
inhibition rate on tumor ([5]; high dose): 64.71%
inhibition rate on tumor ([5]; low dose): 65.36%
inhibition rate on tumor ([5]; medium dose): 69.00%
tumor inhibition rate ([6]; 0.75 mg/kg/time): 56.67%
tumor weight ([6]; 0.75 mg/kg/time): 0.52 ± 0.11 g
tumor inhibition rate ([6]; 1.5 mg/kg/time): 65.00%
tumor weight ([6]; 1.5 mg/kg/time): 0.42 ± 0.10 g
tumor inhibition rate ([6]; 3 mg/kg/time): 58.33%
tumor weight ([6]; 3 mg/kg/time): 0.50 ± 0.11 g
inhibition rate on tumor ([6]; high dose): 58.33%
inhibition rate on tumor ([6]; low dose): 56.67%
inhibition rate on tumor ([6]; medium dose): 65.00%
tumor inhibition rate (melanoma B16F10; 0.75 mg/kg/time (not bid)): 32.17%
tumor weight (melanoma B16F10; 0.75 mg/kg/time (not bid)): 1.80 ± 0.78 g
tumor inhibition rate (melanoma B16F10; 3 mg/kg/time once a day): 37.26%
tumor weight (melanoma B16F10; 3 mg/kg/time once a day): 1.66 ± 1.35 g
tumor inhibition rate ([7]; 0.75 mg/kg/time): 35.90%
tumor weight ([7]; 0.75 mg/kg/time): 0.50 ± 0.13 g
tumor inhibition rate ([7]; 1.5 mg/kg/time): 38.46%
tumor weight ([7]; 1.5 mg/kg/time): 0.42 ± 0.10 g
tumor inhibition rate ([7]; 3 mg/kg/time): 38.28%
tumor weight ([7]; 3 mg/kg/time): 0.48 ± 0.13 g
tumor inhibition rate ([8]; 0.75 mg/kg/time): 65.00%
tumor weight ([8]; 0.75 mg/kg/time): 0.49 ± 0.05 g
tumor inhibition rate ([8]; 1.5 mg/kg/time): 70.71%
tumor weight ([8]; 1.5 mg/kg/time): 0.41 ± 0.07 g
tumor inhibition rate ([8]; 3 mg/kg/time): 62.85%
tumor weight ([8]; 3 mg/kg/time): 0.52 ± 0.05 g
tumor inhibition rate ([9]; 0.75 mg/kg/time): 58.40%
tumor weight ([9]; 0.75 mg/kg/time): 0.52 ± 0.08 g
tumor inhibition rate ([9]; 1.5 mg/kg/time): 64.80%
tumor weight ([9]; 1.5 mg/kg/time): 0.44 ± 0.05 g
tumor inhibition rate ([9]; 3 mg/kg/time): 59.20%
tumor weight ([9]; 3 mg/kg/time): 0.51 ± 0.09 g
inhibition rate on tumor ([9]; high dose): 59.20%
inhibition rate on tumor ([9]; low dose): 58.40%
inhibition rate on tumor ([9]; medium dose): 64.80%
in vivo immunoprotective / therapeutic effect on AIA rat models (adjuvant arthritis): have therapeutic effect
in vivo immunoprotective / therapeutic effect on AIA rat models (adjuvant arthritis; listed as Polypeptide I): presented in vivo immunoprotective effect
swelling of left paws (adjuvant arthritis; dose 0.4 mg/kg): 4.25 ± 0.85 mm
swelling of right paws (adjuvant arthritis; dose 0.4 mg/kg): 1.36 ± 0.31 mm
clinical scoring (adjuvant arthritis; dose 0.4 mg/kg): 7.1 ± 1.1
swelling of left paws (adjuvant arthritis; dose 0.8 mg/kg): 3.83 ± 0.76 mm
swelling of right paws (adjuvant arthritis; dose 0.8 mg/kg): 0.94 ± 0.18 mm
clinical scoring (adjuvant arthritis; dose 0.8 mg/kg): 5.5 ± 1.0
swelling of left paws (adjuvant arthritis; dose 1.6 mg/kg): 4.81 ± 0.95 mm
swelling of right paws (adjuvant arthritis; dose 1.6 mg/kg): 1.35 ± 0.30 mm
clinical scoring (adjuvant arthritis; dose 1.6 mg/kg): 7.0 ± 1.2
joint scoring in contrast with model control group (adjuvant arthritis; high-, medium- and low-dose groups, p<0.05): significantly lower
diameter (swelling degree) of the right hind paw in contrast with model control group (adjuvant arthritis; low-, medium- and high-dose groups, p<0.05): significant difference
diameter of the left hind paw in contrast with model control group (adjuvant arthritis; low-dose and high-dose groups, p<0.05): significant difference
diameter of the left hind paw in contrast with model control group (adjuvant arthritis; medium-dose group, p<0.01): extremely significant difference
tumor inhibition rate ([10]; 0.75 mg/kg/time): 60.47%
tumor weight ([10]; 0.75 mg/kg/time): 0.51 ± 0.09 g
tumor inhibition rate ([10]; 1.5 mg/kg/time): 63.57%
tumor weight ([10]; 1.5 mg/kg/time): 0.47 ± 0.08 g
tumor inhibition rate ([10]; 3 mg/kg/time): 55.04%
tumor weight ([10]; 3 mg/kg/time): 0.58 ± 0.10 g
inhibition rate on tumor ([10]; high dose): 55.04%
inhibition rate on tumor ([10]; low dose): 60.47%
inhibition rate on tumor ([10]; medium dose): 63.57%
tumor inhibition rate (human brain tumor SF763; 0.75 mg/kg/time): 67.80%
tumor weight (human brain tumor SF763; 0.75 mg/kg/time): 0.38 ± 0.06 g
tumor inhibition rate (human brain tumor SF763; 1.5 mg/kg/time): 71.19%
tumor weight (human brain tumor SF763; 1.5 mg/kg/time): 0.34 ± 0.07 g
tumor inhibition rate (human brain tumor SF763; 3 mg/kg/time): 60.16%
tumor weight (human brain tumor SF763; 3 mg/kg/time): 0.47 ± 0.08 g
inhibition rate on tumor (human brain tumor SF763; high dose): 60.16%
inhibition rate on tumor (human brain tumor SF763; low dose): 67.80%
inhibition rate on tumor (human brain tumor SF763; medium dose): 71.19%
tumor inhibition rate ([11]; 0.75 mg/kg/time): 67.83%
tumor weight ([11]; 0.75 mg/kg/time): 0.46 ± 0.14 g
tumor inhibition rate ([11]; 1.5 mg/kg/time): 72.02%
tumor weight ([11]; 1.5 mg/kg/time): 0.40 ± 0.16 g
tumor inhibition rate ([11]; 3 mg/kg/time): 66.43%
tumor weight ([11]; 3 mg/kg/time): 0.48 ± 0.10 g

Source: US9458203B2, “Integrin-blocking polypeptides and uses thereof” (priority 2011, dated 2016)
